No constants are given. Whether binding was seen depends on the method and setting. In cells and extracts the contact can be indirect. Some binding calls cover weakened binding; strength is not graded here. Tags and fused reporters may be left off the sequences shown.

Sequences of proteins named here, by UniProt entry; tags and fusion partners are left off. Residues count along the entry.
UniProt Q9JJN1, residues 29-210: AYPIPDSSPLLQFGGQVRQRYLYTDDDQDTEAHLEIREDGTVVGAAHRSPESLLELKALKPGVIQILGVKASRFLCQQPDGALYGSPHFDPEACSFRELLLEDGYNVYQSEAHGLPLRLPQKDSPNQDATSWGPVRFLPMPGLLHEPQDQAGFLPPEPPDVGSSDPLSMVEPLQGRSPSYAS

In this assay the target is T1, soluble betaKlotho protein (extracellular domain of betaKlotho with a V5 tag and a His tag added to the C-terminus in tandem) (mouse) (UniProt Q99N32).
T1 sequence: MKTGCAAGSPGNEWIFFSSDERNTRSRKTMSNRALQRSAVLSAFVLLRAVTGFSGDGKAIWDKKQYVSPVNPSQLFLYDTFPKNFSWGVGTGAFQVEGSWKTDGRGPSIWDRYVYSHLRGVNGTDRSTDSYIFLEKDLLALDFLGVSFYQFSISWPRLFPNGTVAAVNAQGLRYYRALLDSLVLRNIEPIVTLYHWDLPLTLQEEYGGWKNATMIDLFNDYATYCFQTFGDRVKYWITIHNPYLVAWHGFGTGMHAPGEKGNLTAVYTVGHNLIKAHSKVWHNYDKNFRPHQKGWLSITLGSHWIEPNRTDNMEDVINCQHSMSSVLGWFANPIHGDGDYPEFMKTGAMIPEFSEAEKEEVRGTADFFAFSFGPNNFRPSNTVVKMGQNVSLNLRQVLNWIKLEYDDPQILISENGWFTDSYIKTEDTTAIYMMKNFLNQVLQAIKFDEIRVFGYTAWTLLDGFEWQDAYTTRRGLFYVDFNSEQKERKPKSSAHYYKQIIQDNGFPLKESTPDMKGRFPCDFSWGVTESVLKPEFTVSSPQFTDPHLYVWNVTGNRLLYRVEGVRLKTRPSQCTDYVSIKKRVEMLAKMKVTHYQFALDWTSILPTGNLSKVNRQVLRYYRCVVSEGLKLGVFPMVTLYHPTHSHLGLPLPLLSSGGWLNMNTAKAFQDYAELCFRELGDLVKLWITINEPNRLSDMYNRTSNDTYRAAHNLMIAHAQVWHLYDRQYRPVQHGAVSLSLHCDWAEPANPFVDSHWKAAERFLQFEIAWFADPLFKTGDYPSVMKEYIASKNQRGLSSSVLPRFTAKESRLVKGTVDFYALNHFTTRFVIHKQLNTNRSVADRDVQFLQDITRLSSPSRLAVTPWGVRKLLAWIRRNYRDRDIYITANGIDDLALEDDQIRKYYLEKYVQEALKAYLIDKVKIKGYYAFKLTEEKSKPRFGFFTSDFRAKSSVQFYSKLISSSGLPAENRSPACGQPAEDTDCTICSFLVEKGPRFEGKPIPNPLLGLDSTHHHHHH
Kind of assay: co-precipitation with anti-V5 tag antibody-immobilized beads, immunoblot for FGF21, with or without heparin.

In the case of “FGF21 (mouse-derived) (from UniProt Q9JJN1 29-210) (ligand)”, the binding result was “binds”.

The values are drawn from US20100184665A1.
